# Laboratory results published in the supplement of paper PMC8728848.
# Some of the results follow.
# B1: Gal 12 (Homo sapiens), Q96DT0 (protein)
# chain: MSQPSGGRAPGTRIYSWSCPTVMSPGEKLDPIPDSFILQPPVFHPVVPYVTTIFGGLHAGKMVMLQGVVPLDAHRFQVDFQCGCSLCPRPDIAFHFNPRFHTTKPHVICNTLHGGRWQREARWPHLALRRGSSFLILFLFGNEEVKVSVNGQHFLHFRYRLPLSHVDTLGIFGDILVEAVGFLNINPFVEGSREYPAGHPFLLMSPRLEVPCSHALPQGLSPGQVIIVRGLVLQEPKHFTVSLRDQAAHAPVTLRASFADRTLAWISRWGQKKLISAPFLFYPQRFFEVLLLFQEGGLKLALNGQGLGATSMNQQALEQLRELRISGSVQLYCVHS
# Key:
# Test in all cases: glycan array binding signal (z-score within array); higher = stronger binding
# Details in all cases: glycan notation: IUPAC condensed, linker removed
# [1] = molecular target: Gal6S(b1-4)GlcNAc6S
# Method in brief: (§1)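 Columns mapping to the same glycan were averaged after glycan names were converted to IUPAC-condensed notation. The data come from 3228 arrays in the Consortium for Functional Glycomics database, limited to those with an available protein sequence. Binding is reported as a within-array Z-score averaged across arrays of one protein sequence and across linkers.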
# [2] = molecular target: GalNAc(a1-3)Gal
# Method in brief: as §1
# [3] = molecular target: GalNAc(a1-3)GalNAc
# Method in brief: as §1
# [4] = molecular target: GalNAc(a1-3)GalNAc(a1-3)Gal(a1-4)Gal(b1-4)GlcNAc
# Method in brief: as §1
# [5] = molecular target: GalNAc(a1-3)GalNAc(b1-3)Gal(a1-4)Gal(b1-4)Glc
# Method in brief: as §1
# [6] = molecular target: GalNAc(a1-3)GalNAc(b1-3)Gal(a1-4)Gal(b1-4)GlcNAc
# Method in brief: as §1
# [7] = molecular target: GalNAc(b1-3)Gal
# Method in brief: as §1
# [8] = molecular target: GalNAc(b1-3)Gal(a1-4)Gal(b1-4)GlcNAc
# Method in brief: as §1
# [9] = molecular target: GalNAc(b1-3)Gal(a1-4)Gal(b1-4)GlcNAc(b1-3)Gal(b1-4)Glc
# Method in brief: as §1
# [10] = molecular target: GalNAc(b1-3)Gal(a1-6)Gal(b1-4)Glc
# Method in brief: as §1
# [11] = molecular target: GalNAc(b1-3)GalNAc
# Method in brief: as §1
# [12] = molecular target: GalNAc(b1-3)GlcNAc
# Method in brief: as §1
# [13] = molecular target: GalNAc(b1-4)Gal(b1-4)Glc
# Method in brief: as §1
# [14] = molecular target: GalNAc(b1-4)GlcNAc
# Method in brief: as §1
# [15] = molecular target: GalNAc(b1-4)GlcNAc(b1-2)Man
# Method in brief: as §1
# [16] = molecular target: GalNAc(b1-4)GlcNAc(b1-2)Man(a1-3)[GalNAc(b1-4)GlcNAc(b1-2)Man(a1-6)]Man(b1-4)GlcNAc(b1-4)GlcNAc
# Method in brief: as §1
# [17] = molecular target: GalNAc(b1-4)GlcNAc(b1-3)GalNAc(b1-4)GlcNAc
# Method in brief: as §1
# [18] = molecular target: GalNAc(b1-4)GlcNAc6S
# Method in brief: as §1
# [19] = molecular target: GalNAc(b1-6)GalNAc
# Method in brief: as §1
# [20] = molecular target: GalNAc3S(b1-4)GlcNAc
# Method in brief: as §1
# [21] = molecular target: GalNAc3S(b1-4)GlcNAc3S
# Method in brief: as §1
# [22] = molecular target: GalNAc3S(b1-4)[Fuc(a1-3)]GlcNAc
# Method in brief: as §1
# [23] = molecular target: GalNAc4S6S(b1-4)GlcNAc
# Method in brief: as §1
# [24] = molecular target: GalNAc6S(b1-4)GlcNAc
# Method in brief: as §1
# [25] = molecular target: Glc(a1-4)Glc
# Method in brief: as §1
# [26] = molecular target: Glc(a1-4)Glc(a1-4)Glc(a1-4)Glc
# Method in brief: as §1
# [27] = molecular target: Glc(a1-6)Glc(a1-6)Glc
# Method in brief: as §1
# [28] = molecular target: Glc(a1-6)Glc(a1-6)Glc(a1-6)Glc
# Method in brief: as §1
# [29] = molecular target: Glc(b1-4)Glc
# Method in brief: as §1
# [30] = molecular target: Glc(b1-6)Glc
# Method in brief: as §1
# [31] = molecular target: GlcA(b1-3)Gal
# Method in brief: as §1
# [32] = molecular target: GlcA(b1-3)GlcNAc
# Method in brief: as §1
# [33] = molecular target: GlcA(b1-6)Gal
# Method in brief: as §1
# [34] = molecular target: GlcA3S(b1-3)Gal(b1-4)GlcNAc(b1-2)Man
# Method in brief: as §1
# [35] = molecular target: GlcA3S(b1-3)Gal(b1-4)GlcNAc(b1-3)Gal(b1-4)Glc
# Method in brief: as §1
# [36] = molecular target: GlcNAc(a1-3)Gal(b1-4)GlcNAc
# Method in brief: as §1
# [37] = molecular target: GlcNAc(a1-4)Gal(b1-3)GlcNAc
# Method in brief: as §1
binder,measurement,setting,value
B1,glycan array binding signal (z-score),[1],-0.084
same,glycan array binding signal (z-score),[2],0.531
same,glycan array binding signal (z-score),[3],-0.257
same,glycan array binding signal (z-score),[4],-0.531
same,glycan array binding signal (z-score),[5],0.43
same,glycan array binding signal (z-score),[6],-0.474
same,glycan array binding signal (z-score),[7],-0.335
same,glycan array binding signal (z-score),[8],0.015
same,glycan array binding signal (z-score),[9],-0.621
same,glycan array binding signal (z-score),[10],-0.331
same,glycan array binding signal (z-score),[11],-0.264
same,glycan array binding signal (z-score),[12],-1.02
same,glycan array binding signal (z-score),[13],0.093
same,glycan array binding signal (z-score),[14],0.685
same,glycan array binding signal (z-score),[15],-0.114
same,glycan array binding signal (z-score),[16],-0.036
same,glycan array binding signal (z-score),[17],-0.909
same,glycan array binding signal (z-score),[18],-0.136
same,glycan array binding signal (z-score),[19],0.172
same,glycan array binding signal (z-score),[20],-1.24
same,glycan array binding signal (z-score),[21],-0.326
same,glycan array binding signal (z-score),[22],-0.973
same,glycan array binding signal (z-score),[23],-0.099
same,glycan array binding signal (z-score),[24],-0.294
same,glycan array binding signal (z-score),[25],-0.084
same,glycan array binding signal (z-score),[26],-0.426
same,glycan array binding signal (z-score),[27],0.307
same,glycan array binding signal (z-score),[28],-0.136
same,glycan array binding signal (z-score),[29],-1.29
same,glycan array binding signal (z-score),[30],-0.375
same,glycan array binding signal (z-score),[31],-0.87
same,glycan array binding signal (z-score),[32],0.569
same,glycan array binding signal (z-score),[33],-0.421
same,glycan array binding signal (z-score),[34],-0.769
same,glycan array binding signal (z-score),[35],0.018
same,glycan array binding signal (z-score),[36],-0.793
same,glycan array binding signal (z-score),[37],-0.407

# For convenience, part of the list above:
binder,measurement,setting,value
B1,glycan array binding signal (z-score),[12],-1.02
same,glycan array binding signal (z-score),[13],0.093
same,glycan array binding signal (z-score),[14],0.685
same,glycan array binding signal (z-score),[15],-0.114
same,glycan array binding signal (z-score),[16],-0.036
same,glycan array binding signal (z-score),[17],-0.909
same,glycan array binding signal (z-score),[18],-0.136
same,glycan array binding signal (z-score),[19],0.172
same,glycan array binding signal (z-score),[20],-1.24
same,glycan array binding signal (z-score),[21],-0.326
same,glycan array binding signal (z-score),[22],-0.973
